From PubChem BioAssay AID1347076 (National Center for Advancing Translational Sciences (NCATS), 2019)
Hit rate of the full screen: of about 400,000 compounds, about 13,000 (3.2%) were called active. Inconclusive means that the source gave no clear call. Such entries were picked first, then a sample of the others. The call rests on the fitted dose curve; in most records, active means well fitted cell-killing curve with a large enough effect; inconclusive means small, poorly fitted or top-dose-only effect, or effect the other way; inactive means flat fitted curve, though single readings scatter. Potencies of inconclusive entries are doubtful fits and often do not repeat.

experiment: qHTS assay for MDR1-selective chemotherapeutics: Primary screen using the drug-selected MDR subline cells KB-V1; settings: KB-V1 MDR cells viability, CellTiter-Glo, 72 h; activity change, negative = cytotoxicity: at 46.1 µM (top of the series); further: nearly all actives have a fitted effect of over 60% in size
In short: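 Following 72 h at 37 degrees C with compound, KB-V1 cell viability was read by CellTiter-Glo luminescence, medium being phenol-red-free DMEM plus 10% FBS; concentration-response parameters came from normalized, curve-fitted qHTS data.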
On the % scale 0 is the no-effect control and ±100 the full control effect; potency means the concentration at half of the fitted maximal effect.

**Q.** Which Potency does the source give for `Cc1nn(CC2CC2)c(=O)n1-c1ccc(Oc2ccccc2)cc1` here?
**A.** inconclusive: 11.6 µM [cytotoxic, partial curve]

**Q.** For `CCOc1ccc(N(C)S(=O)(=O)c2cc(-c3cc(C)no3)ccc2C)cc1`, which Potency is on record?
**A.** inconclusive: 29.1 µM [cytotoxic, single point]

**Q.** Which Potency does the source give for `Cc1ccc(C)c(-c2nc3ccc(N)cc3[nH]2)c1` here?
**A.** inconclusive: 18.4 µM [cytotoxic, single point]

**Q.** With `CCOCCCNC(=O)c1ccc(CS(=O)(=O)Cc2ccccc2F)o1` as the compound, how does the Potency read?
**A.** inconclusive: 0.92 µM [cytotoxic, partial curve]

**Q.** With `CCOC(=O)c1csc(NC(=O)c2ccc3c(c2)OCCO3)n1` as the compound, how does the Potency read?
**A.** inconclusive: 11.6 µM [cytotoxic, partial curve]

**Q.** With `COc1ccc(N2C3=C(CC4=C2CCCC4=O)C(=O)CCC3)cc1` as the compound, how does the Potency read?
**A.** inactive

**Q.** With `CCOC(=O)/C=C/c1cccc(C)c1O` as the compound, how does the Potency read?
**A.** inactive

**Q.** For `CC1(O)C(c2ccccc2)=Nc2ccccc21` (stereo not given), which Potency is on record?
**A.** inactive

**Q.** Which Potency does the source give for `Cc1ccc(C(=O)CC(=O)c2cccc(F)c2)c(O)c1` here?
**A.** inconclusive: 25.9 µM [cytotoxic, single point]

**Q.** Which Potency does the source give for `COc1ccc(Br)cc1CNC(=O)C1COc2ccccc2C1` (stereo not given) here?
**A.** inactive

**Q.** For `O=C(O)c1ccccc1-c1nnc2c(Cl)cc(C(F)(F)F)cn12`, which Potency is on record?
**A.** inconclusive: 13 µM [rising, partial curve, poor fit]

**Q.** Which Potency does the source give for `O=C(CCCN1C(=O)/C(=C\c2cccs2)SC1=S)Nc1ccccn1` here?
**A.** inconclusive: 29.1 µM [cytotoxic, single point]

**Q.** With `Cc1ccc2nc(N3CCN(C)CC3)c(C=O)c(=O)n2c1` as the compound, how does the Potency read?
**A.** inactive

**Q.** With `CC(C)(C)c1ccc(C(=O)N/C(=C\c2cccs2)C(=O)NCc2ccco2)cc1` as the compound, how does the Potency read?
**A.** inconclusive: 23.1 µM [cytotoxic, partial curve, poor fit]

**Q.** Which Potency does the source give for `O=C(CN1C(=O)NC2(CCCCC2)C1=O)Nc1ccc(Cl)cc1` here?
**A.** inactive

**Q.** For `COc1ccc(C(=O)NCc2ccc(F)cc2)cc1S(=O)(=O)N1CCCC1`, which Potency is on record?
**A.** inactive

**Q.** Which Potency does the source give for `Cc1ccc(S(=O)(=O)N2[C@@H](Cc3ccccc3)CO[C@H]2CC(=O)c2ccc(F)cc2)cc1` here?
**A.** inconclusive: 16.4 µM [cytotoxic, partial curve]

**Q.** With `O=CNCc1nc2ccccc2n1CCCc1ccccc1` as the compound, how does the Potency read?
**A.** inactive

**Q.** For `O=C(NC1CCN(Cc2ccccc2)CC1)C1CCN(S(=O)(=O)c2ccc(Cl)cc2)CC1`, which Potency is on record?
**A.** inactive

**Q.** For `Cc1ccc(-c2ccnc3nc(Sc4ncc(C(F)(F)F)cc4Cl)nn23)cc1`, which Potency is on record?
**A.** inconclusive: 18.4 µM [cytotoxic, partial curve, poor fit]

**Q.** For `C(=N\Nc1nc2ccccc2[nH]1)/c1ccc2c(c1)OCO2`, which Potency is on record?
**A.** inactive

**Q.** With `O=[N+]([O-])c1cc(S(=O)(=O)Nc2ccccc2)ccc1NCc1cccnc1` as the compound, how does the Potency read?
**A.** inconclusive: 18.4 µM [cytotoxic, single point]

**Q.** For `CN(CC(=O)Nc1c(Cl)cccc1Cl)C(=O)CCNS(=O)(=O)c1ccccc1C(F)(F)F`, which Potency is on record?
**A.** inconclusive: 20.6 µM [cytotoxic, partial curve]

**Q.** For `Fc1ccc(Nc2nc(Nc3ccc(F)cc3)nc(N3CCOCC3)n2)cc1`, which Potency is on record?
**A.** inactive

**Q.** For `COc1ccc(CN2CCC(C(=O)Nc3ccc(Oc4cccnc4)cc3)CC2)cc1`, which Potency is on record?
**A.** inconclusive: 10.3 µM [cytotoxic, partial curve]

**Q.** For `COc1ccc(/C=C/C(=O)Nc2cc(C)nn2-c2nc3ccccc3n2Cc2cccc([N+](=O)[O-])c2)cc1`, which Potency is on record?
**A.** inconclusive: 5.17 µM [cytotoxic, partial curve, poor fit]

**Q.** With `CN(C(=S)Nc1ccc(F)cc1)C1(c2ccccc2Cl)CCCCC1=O` (stereo not given) as the compound, how does the Potency read?
**A.** inconclusive: 9.2 µM [cytotoxic, partial curve, poor fit]

**Q.** For `C=CCOc1cccc(C2C(C(=O)c3ccc(C)o3)=C(O)C(=O)N2c2nccs2)c1` (stereo not given), which Potency is on record?
**A.** inconclusive: 20.6 µM [cytotoxic, single point]

**Q.** With `O=C(Nc1ccccc1)N1CCN(c2ccc(C(F)(F)F)cn2)CC1` as the compound, how does the Potency read?
**A.** active: 8.2 µM

**Q.** For `Cc1cccc(NS(=O)(=O)c2cccc(C(=O)NCC(c3ccc(F)cc3)N3CCOCC3)c2)c1` (stereo not given), which Potency is on record?
**A.** active: 20.6 µM

**Q.** With `CCOc1ccc(-c2cc(C(=O)N3CCN(c4cccc(C(F)(F)F)c4)CC3)c3ccccc3n2)cc1` as the compound, how does the Potency read?
**A.** inconclusive: 14.6 µM [cytotoxic, partial curve, poor fit]

**Q.** Which Potency does the source give for `COCCNc1nc(NCc2cc(-c3ccc(OC)cc3)no2)c2sccc2n1` here?
**A.** active: 18.4 µM

**Q.** For `COCCN1C(=O)N[C@@H](c2ccco2)C(C(=O)OC)=C1C`, which Potency is on record?
**A.** inactive

**Q.** For `Cc1ccc2oc3c(c(=O)c2c1)C(c1ccc(OCC(N)=O)cc1)N(Cc1ccc2c(c1)OCO2)C3=O` (stereo not given), which Potency is on record?
**A.** inactive

**Q.** Which Potency does the source give for `CCOc1ccccc1N(CC(=O)Nc1ccc(OC)c(Cl)c1)S(=O)(=O)c1ccccc1` here?
**A.** inconclusive: 13 µM [cytotoxic, partial curve, poor fit]

**Q.** Which activity change, negative = cytotoxicity does the source give for `C[C@@H]1COC(=O)[C@H](CC(=O)OC(C)(C)C)C/C=C\C[C@@H](CC(=O)N[C@H](CO)Cc2ccccc2)C(=O)N1` here?
**A.** inconclusive: 7.91%

**Q.** With `O=C(c1ccc(F)c(S(=O)(=O)N2CCOCC2)c1)N(CCc1ccccc1)Cc1ccccc1` as the compound, how does the Potency read?
**A.** inconclusive: 4.11 µM [cytotoxic, partial curve]

**Q.** Which Potency does the source give for `O=C(N/N=C/c1ccc(C(=O)O)cc1)C1=NNC(c2ccccc2)(c2ccccc2)C1` here?
**A.** inactive

**Q.** With `O=C(NC(=S)Nc1ccc(-c2ccccc2)cc1)c1ccccc1` as the compound, how does the Potency read?
**A.** inactive

**Q.** With `Cc1cc(NC(=O)CSc2nc(CCC3CCCC3)nc3ccccc23)no1` as the compound, how does the Potency read?
**A.** inactive

**Q.** With `COC(=O)c1ccc(CN(C)S(=O)(=O)c2ccc(C)cc2)o1` as the compound, how does the Potency read?
**A.** inconclusive: 23.1 µM [cytotoxic, single point]

**Q.** For `Cc1cc(C)n(C(=O)CNc2ccccc2Cl)n1`, which Potency is on record?
**A.** inconclusive: 8.2 µM [rising, partial curve]

**Q.** With `CC(C)(C)c1ccc(C(=O)OCC(=O)NC2CC2)cc1` as the compound, how does the Potency read?
**A.** inconclusive: 29.1 µM [rising, single point]

**Q.** With `COc1ccc(Oc2nc(C)nc3c2oc2ccccc23)cc1` as the compound, how does the Potency read?
**A.** inconclusive: 16.4 µM [cytotoxic, single point]

**Q.** Which Potency does the source give for `COc1cc(OC)c(OC)cc1/C=N/NC(=S)NCC1CCCO1` (stereo not given) here?
**A.** inconclusive: 9.2 µM [cytotoxic, partial curve]

**Q.** For `CCOC(=O)c1cc(-c2ccccc2)n(CCCC(=O)Nc2cc(C)ccc2OC)c1C`, which Potency is on record?
**A.** inactive

**Q.** Which Potency does the source give for `Cc1cccc(-c2nc3c(c(SCC(=O)N4CCCC4)n2)COC(C)(C)C3)c1` here?
**A.** inconclusive: 1.46 µM [rising, full curve]

**Q.** With `COc1ccccc1Cc1nc2ccccc2nc1SCC(=O)N1CCC(C)CC1` as the compound, how does the Potency read?
**A.** inactive

**Q.** Which Potency does the source give for `CCCCNC(=O)C1(C)CCCCCN1Cc1cccc2c(OC)cc(C(=O)OCC)cc12` (stereo not given) here?
**A.** inconclusive: 25.9 µM [cytotoxic, single point]

**Q.** With `CSc1ccc2[nH]c(=O)cc(C)c2c1` as the compound, how does the Potency read?
**A.** inconclusive: 18.4 µM [cytotoxic, partial curve, poor fit]

**Q.** For `COc1ccc(OC)c(NC(=O)CCc2nc(-c3ccc(C)cc3)no2)c1`, which Potency is on record?
**A.** inconclusive: 29.1 µM [cytotoxic, single point]

**Q.** Which Potency does the source give for `O=C(COC(=O)CCNS(=O)(=O)c1ccccc1)Nc1ccc(OC(F)F)cc1` here?
**A.** inconclusive: 20.6 µM [cytotoxic, single point]

**Q.** Which Potency does the source give for `C=CCn1c(NC(=O)c2ccc(Br)o2)c(S(=O)(=O)c2ccccc2)c2nc3ccccc3nc21` here?
**A.** inconclusive: 20.6 µM [cytotoxic, single point]

**Q.** With `O=c1c(S(=O)(=O)c2ccc(Cl)cc2)cn(Cc2ccc(F)cc2)c2ccc(F)cc12` as the compound, how does the Potency read?
**A.** inactive

**Q.** With `O=C(O)Cc1ccc(S(=O)(=O)Nc2ccccc2C(=O)O)cc1` as the compound, how does the Potency read?
**A.** inactive

**Q.** Which Potency does the source give for `COC(=O)C1CCCCN1C(=O)c1ccc(OC2CCN(C(C)=O)CC2)c(OC)c1` (stereo not given) here?
**A.** inconclusive: 20.6 µM [rising, partial curve, poor fit]

**Q.** Which Potency does the source give for `COc1ccc(Cl)cc1NC(=O)CN(C)CC(=O)Nc1c(C)n(C)n(-c2ccccc2)c1=O` here?
**A.** inactive

**Q.** For `CC(C)(C)c1ccc(NC(=O)CSc2nnc(-c3n[nH]c4ccccc34)o2)cc1`, which Potency is on record?
**A.** inconclusive: 16.4 µM [cytotoxic, partial curve, poor fit]

**Q.** For `O=c1c2ccccc2ncn1-c1ccc(Br)cc1[N+](=O)[O-]`, which Potency is on record?
**A.** inactive

**Q.** Which Potency does the source give for `CCCCC1=CC2=C(c3ccco3)C(=O)C(C)(OC(=O)c3ccc(OC)cc3)C(=O)C2=CN1CCN1CCOCC1` (stereo not given) here?
**A.** inconclusive: 13 µM [rising, single point]

**Q.** With `CC(=O)c1sc(NC(=O)c2cccc(C)c2)nc1C` as the compound, how does the Potency read?
**A.** inconclusive: 13 µM [cytotoxic, partial curve]

**Q.** With `COc1ccccc1NC(=O)c1cc(S(=O)(=O)N2CCc3ccccc32)ccc1F` as the compound, how does the Potency read?
**A.** inactive

**Q.** With `O=C(COC(=O)C1CCCCC1)NCc1ccc(Cl)cc1` as the compound, how does the Potency read?
**A.** inactive

**Q.** For `CCCCOc1cccc(C(=O)NC(=S)Nc2cccnc2)c1`, which Potency is on record?
**A.** active: 18.4 µM

**Q.** Which Potency does the source give for `COc1cccc(C(=O)Nc2ccc3c(c2)OC[C@H](C)N(CCc2ccccc2)C[C@@H](C)[C@@H](OC)CN(C)C3=O)c1` here?
**A.** inconclusive: 18.4 µM [cytotoxic, single point]

**Q.** For `COC(=O)C(Cc1c[nH]c2ccccc12)NC(=O)CNC(C)=O` (stereo not given), which Potency is on record?
**A.** inconclusive: 29.1 µM [rising, single point]

**Q.** With `CCOC(=O)C1CCN(C(=O)CN2C(=O)c3cccnc3Oc3ccccc32)CC1` as the compound, how does the Potency read?
**A.** inactive

**Q.** Which Potency does the source give for `Cc1ccc(S(=O)(=O)N(Cc2ccccc2)c2ccccc2C(=O)N2CCCCC2)cc1` here?
**A.** inconclusive: 23.1 µM [cytotoxic, single point]

**Q.** Which Potency does the source give for `CC(=O)c1cc(C#N)c(SCc2ccc([N+](=O)[O-])cc2)nc1C` here?
**A.** inactive

**Q.** Which Potency does the source give for `O=C(Cc1cccs1)Nc1ccc(Cl)c(S(=O)(=O)N2CCOCC2)c1` here?
**A.** inconclusive: 29.1 µM [cytotoxic, single point]
